PubChem BioAssay AID1671195 | Yale University | 2021
The deposit covers about 22,000 reagents; below is a part drawn at random. In the full data, about 1,510 (6.9%) were called active. 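Active includes knockdowns raising or lowering LDL uptake; positive z-scores mean more uptake, negative mean less.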 Unmarked entries are inactive. Reagents against one gene are numbered here. No sequences are given here.

Aim: 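Genes whose knockdown alters LDL uptake in liver cancer cells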 (primary screen)
Cell system: human Huh7 hepatoma cells
Knock-down reagent: siRNA pool against human genes, 18 nM
Duration: about 2 to 2.5 days of knockdown, then 8 h LDL uptake
Challenge: DiI-labelled LDL at 30 µg/ml for 8 h, in lipoprotein-deficient serum medium
Detection: 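Per-cell DiI-LDL intensity by automated imaging; well means scaled to the plate median and given as a robust z-score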
Reading the numbers: robust z-score: higher = more LDL uptake after knockdown
Rule for the call: 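Active when two or more replicates show a robust z-score above 2 or below -2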

DNAJC2 — robust z-score, replicate 1 = 0.76; robust z-score, replicate 2 = 0.686; robust z-score, replicate 3 = 0.286
KLHL1 — robust z-score, replicate 1 = 0.92; robust z-score, replicate 2 = 0.128; robust z-score, replicate 3 = 0.245
C12orf76 — robust z-score, replicate 1 = 1.65; robust z-score, replicate 2 = 1.53; robust z-score, replicate 3 = 1.58
OR10T2 — robust z-score, replicate 1 = 0.534; robust z-score, replicate 2 = 0.651; robust z-score, replicate 3 = 1.58
PDPR — robust z-score, replicate 1 = -0.403; robust z-score, replicate 2 = 0.399; robust z-score, replicate 3 = -0.0979
AGAP2 — robust z-score, replicate 1 = 0.337; robust z-score, replicate 2 = 0.664; robust z-score, replicate 3 = 0.565
PPP2R3C — robust z-score, replicate 1 = 0.839; robust z-score, replicate 2 = 2.64; robust z-score, replicate 3 = 0.293
RAET1L — robust z-score, replicate 1 = -0.86; robust z-score, replicate 2 = -1.75; robust z-score, replicate 3 = -0.984
PTCHD4 #1 — robust z-score, replicate 1 = 0.759; robust z-score, replicate 2 = 0.607; robust z-score, replicate 3 = 1.01
PTCHD4 #2 — robust z-score, replicate 1 = -1.19; robust z-score, replicate 2 = -1.22; robust z-score, replicate 3 = -1.16
LOC343295 (retired record) — robust z-score, replicate 1 = 2.58 (active); robust z-score, replicate 2 = 2.41; robust z-score, replicate 3 = 2.85
ZNF630 — robust z-score, replicate 1 = 0.678; robust z-score, replicate 2 = 0.668; robust z-score, replicate 3 = 0.58
BEST4 — robust z-score, replicate 1 = 0.284; robust z-score, replicate 2 = 0.414; robust z-score, replicate 3 = 0.496
CYBRD1 — robust z-score, replicate 1 = -0.0906; robust z-score, replicate 2 = -0.401; robust z-score, replicate 3 = -0.676
JUNB — robust z-score, replicate 1 = -0.776; robust z-score, replicate 2 = -0.612; robust z-score, replicate 3 = -1.07
MS4A6E — robust z-score, replicate 1 = 1.41; robust z-score, replicate 2 = 0.415; robust z-score, replicate 3 = 0.675
DLEU7 — robust z-score, replicate 1 = -0.182; robust z-score, replicate 2 = -0.824; robust z-score, replicate 3 = -0.489
RORA — robust z-score, replicate 1 = 0.551; robust z-score, replicate 2 = 0.256; robust z-score, replicate 3 = -0.197
PRMT8 — robust z-score, replicate 1 = -0.0585; robust z-score, replicate 2 = -0.117; robust z-score, replicate 3 = 0.804
LOC442430 (retired record) — robust z-score, replicate 1 = 2.11; robust z-score, replicate 2 = 1.85; robust z-score, replicate 3 = 1.96
C9orf78P2 — robust z-score, replicate 1 = 0.386; robust z-score, replicate 2 = 0.133; robust z-score, replicate 3 = -0.0354
OR10A2 — robust z-score, replicate 1 = 1.1; robust z-score, replicate 2 = 1.13; robust z-score, replicate 3 = 0.701
ELAPOR1 — robust z-score, replicate 1 = 4.32 (active); robust z-score, replicate 2 = 6.02; robust z-score, replicate 3 = 3.01
PALS1 — robust z-score, replicate 1 = -0.39; robust z-score, replicate 2 = 0.222; robust z-score, replicate 3 = -1.03

Entries above whose gene name begins with R or r (2):
RAET1L — robust z-score, replicate 1 = -0.86; robust z-score, replicate 2 = -1.75; robust z-score, replicate 3 = -0.984
RORA — robust z-score, replicate 1 = 0.551; robust z-score, replicate 2 = 0.256; robust z-score, replicate 3 = -0.197
